This note sets out measurements from PubChem BioAssay AID2685 (National Center for Advancing Translational Sciences (NCATS), 2010).

Each structure is given as a SMILES string. This is one part of the list. The main result of the screen is listed elsewhere. These columns were measured beside it and carry no call. The list favours compounds with an active or inconclusive main result. The note in brackets gives the kind of curve behind each potency; many fits are weak.

This experiment is described as follows: qHTS Assay for Lipid Storage Modulators in Drosophila S3 Cells.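 For cell number change: cells counted by Cell Tracker Red CMTPX staining in the red channel.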 The note with it: BODIPY lipid droplet fluorescence, 18-24 h; for cell number change: measured here: cell count max response, cells fed with added oleic acid. In short, it runs like this: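 Drosophila S3 cells loaded with oleic acid (400 uM, as added) and compounds at several concentrations; lipid droplets imaged by 488-nm laser-scanning cytometry, 500–530 nm intensity and object ratio to cell channel. Percent activity normalized to 20 uM Triacsin C.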

Where [1] appears, read: measured here: cell number channel AC50, cells fed with added oleic acid.
Setting [2] is: measured here: lipid fluorescence (Fed channel) AC50, cells fed with added oleic acid.

As to `CC(C(=O)N1CCCc2ccccc21)N1CCN(c2ccccn2)CC1` (stereo not given), the cell number change was determined as 47.4%. Besides, under setting [1], the AC50 (in general, the concentration at which the activity in the assay is half-maximal) was 29.1 µM [rising, single point]. The AC50 under setting [2] was 29.1 µM [rising, single point].

In the case of `CCOC(=O)Cn1nnnc1C(CC)N(Cc1ccccc1)Cc1cc2cc(C)ccc2[nH]c1=O` (stereo not given), the cell number change came to 30.6%. The AC50 under setting [1] was 16.4 µM [rising, partial curve, poor fit]. The AC50 under setting [2] was 20.6 µM [rising, partial curve].

As to `C=CCOc1cccc(C(=O)N2CCCC(Nc3ccc4c(c3)OCCO4)C2)c1` (stereo not given), the cell number change was 7.33%.

Turning to `O=C(CSc1nc2ccccc2nc1SCC(=O)N1CCCCC1)N1CCCCC1`, the AC50 under setting [2] was 32.6 µM [falling, single point].

Consider `Cc1cc2c(ncn2C)c(NS(=O)(=O)c2ccc(F)cc2)c1C`, for which the cell number change was -22%.

`CCSc1nc2c(c(=O)[nH]1)C(c1cccs1)C(C(=O)OC)=C(C)N2` (stereo not given): the cell number change amounted to 23%. For the same compound, the AC50 under setting [1] is 2.31 µM [rising, full curve, poor fit]. Further, under setting [2], the AC50 was 2.06 µM [rising, full curve, poor fit].

`O=C(Nc1cnn(Cc2ccc(Cl)cc2)c1)c1cnccn1`: the cell number change is 1.27%. Under setting [2], the AC50 was 6.51 µM [rising, single point].

For the compound `COCC(C)NCc1ccccc1C` (stereo not given), the cell number change was found to be 19.6%.

For the compound `CCCn1c(-c2cccs2)nc2ccccc21`, the cell number change came to 32.7%. Under setting [1], the AC50 was 14.6 µM [rising, single point]. The AC50 under setting [2] is 2.59 µM [rising, partial curve].

On to `Cc1noc2ncnc(N3CCN(c4cccc(Cl)c4)CC3)c12`, for which the cell number change is -0.112%. Moreover, the AC50 under setting [2] was 0.82 µM [rising, full curve, poor fit].

`Cc1ccccc1Nc1nnc(SCc2cc(=O)n3ccsc3n2)s1`: the cell number change is -34.5%. Under setting [1], the AC50 was 23.1 µM [falling, single point].

Consider `Cc1ccc(/C=N/NC(=O)C2COc3ccccc3O2)s1` (stereo not given), for which the cell number change stood at 109%. The AC50 under setting [1] was 18.4 µM [rising, single point].

Regarding `Cn1ncc(C#N)c1NC(=O)C1CC(c2ccc(Cl)c(Cl)c2)=NO1` (stereo not given), the cell number change was 2.43%. Further, under setting [2], the AC50 was 16.4 µM [rising, single point].

Regarding `Cc1c(Cl)cccc1NC(=O)CSc1nnc(C)n1CC1CCCO1` (stereo not given), the cell number change was -2.63%. Besides, the AC50 under setting [2] was 35.5 µM [falling, single point].

Take `CCOC(=O)C1C(=O)N(C(=O)c2cncc(Br)c2)CC1c1ccccc1` (stereo not given): the cell number change was 3.95%. Also, the AC50 under setting [2] was 6.51 µM [falling, partial curve, poor fit].

For the compound `CCOC(=O)c1cc(NC(=O)c2c(C)noc2C)cc(C(=O)OCC)c1`, the cell number change is 14.3%. Under setting [2], the AC50 was 2.31 µM [rising, partial curve].

In the case of `COc1cc(CNCCO)cc(Br)c1OCc1ccccc1`, the cell number change was -6.37%.

For the compound `O=C(NCCc1ccc(Cl)cc1)C1CCC(=O)N(C2CCCCCC2)C1` (stereo not given), the cell number change is -7.63%. The AC50 under setting [1] was 4.61 µM [rising, single point].

`CCOc1ccccc1C(=O)N[C@H](C(=O)Nc1nc2c(s1)CCCC2)C(C)C`: the cell number change was 21.8%. Also, the AC50 under setting [2] is 0.103 µM [rising, full curve, poor fit].

`CCOCc1cc(=O)[nH]c(SC)n1`: the cell number change is -0.195%. Further, the AC50 under setting [2] was 0.58 µM [falling, single point].

Regarding `C/C(=N\NC(=O)c1ccc(COc2ccccc2)cc1)c1ccncc1`, the cell number change is -41.4%. Besides, the AC50 under setting [1] was 29.1 µM [falling, single point]. Further, the AC50 under setting [2] was 0.231 µM [falling, full curve, poor fit].

In the case of `Cc1ccc(Nc2nc(Cl)nc(NC3CCCCC3)n2)cc1`, the cell number change was -44%. In addition, the AC50 under setting [1] is 14.6 µM [falling, single point].

On to `Cc1c(NC(=O)Nc2cccc(F)c2)c(=O)n(-c2ccccc2)n1C`, for which the cell number change was found to be 22.3%. Moreover, the AC50 under setting [2] is 23.1 µM [rising, single point].

Regarding `Cc1nn(Cc2ccc([N+](=O)[O-])cc2)c(=O)n1-c1ccccc1Cl`, the cell number change is -17.8%. For the same compound, under setting [2], the AC50 was 0.082 µM [falling, full curve, poor fit].

`CN(CC(=O)Nc1ccc(Cl)cc1)C(=O)CCc1nc2sc3c(c2c(=O)[nH]1)CCCC3`: the cell number change is -45.6%. The AC50 under setting [1] was 29.1 µM [falling, single point]. Besides, under setting [2], the AC50 is 29.1 µM [falling, single point].

Turning to `COc1ccc(-c2nnn(CC(=O)c3c[nH]c4ccccc34)n2)cc1OC`, the cell number change is -37.5%. Besides, under setting [2], the AC50 was 2.31 µM [rising, full curve].

In the case of `CCOc1ccc(-c2c(C(=O)N/N=C/c3ccncc3)nnn2-c2nonc2N)cc1`, the cell number change is -8.06%. For the same compound, the AC50 under setting [2] was 3.66 µM [rising, single point].

Turning to `COC(=O)c1cc(NC(=O)C2C3C=CC(C3)C2C(=O)O)cc(C(=O)OC)c1` (stereo not given), the cell number change is -2.32%. In addition, the AC50 under setting [2] is 0.231 µM [falling, full curve, poor fit].

For `Cc1ccnc(NC(=O)Nc2ccc(F)cc2)c1`, the cell number change was -7.4%.

For the compound `Nc1[nH]n2c(=O)c3c(nc2c1N=Nc1ccccc1)CCCC3`, the cell number change is -19.8%.

Turning to `CCOc1ccc(-c2nc(C#N)c(N3CCOCC3)o2)cc1`, the AC50 under setting [2] was 6.51 µM [rising, single point].

As for `Cc1oc(-c2cccc(Cl)c2)nc1CS(=O)(=O)CC(=O)NCc1ccco1`, under setting [2], the AC50 is 3.66 µM [rising, partial curve].

In the case of `COc1cc(/C=C(\C#N)C(=O)NCc2ccccc2)ccc1OCc1ccc(C(=O)O)cc1`, the cell number change is -12%.

On to `O=C(Nc1cccc(F)c1)C1C2C=CC3(CN(CCCN4CCOCC4)C(=O)C13)O2` (stereo not given), for which the cell number change came to 15.7%. Besides, the AC50 under setting [2] is 23.1 µM [falling, single point].

As to `COc1cc(C(=O)Nc2nnc(C)s2)c([N+](=O)[O-])cc1OC`, the cell number change is -13.7%. In addition, the AC50 under setting [2] was 0.00461 µM [falling, full curve, poor fit].

Regarding `Cc1ccc2cc(C(c3nnnn3C3CCCC3)N(Cc3ccco3)Cc3cccs3)c(=O)[nH]c2c1` (stereo not given), the cell number change worked out at 55.8%.

For `COc1cc(NC(=O)C/C(C)=N/NC(=O)c2ccccn2)c(OC)cc1Cl`, the cell number change stood at 11.5%. Moreover, the AC50 under setting [2] is 20.6 µM [rising, partial curve].

`CCc1ccccc1N(C(C)=O)c1nc(CCl)cs1`: the cell number change was -0.0937%. Moreover, the AC50 under setting [2] was 0.82 µM [rising, single point].

In the case of `Cc1cccc(NC(=O)C2CCN(S(=O)(=O)c3ccc4ccccc4c3)CC2)n1`, the cell number change was 5.49%.

Turning to `CN(C)CCCNC(=O)/C=C/c1ccc2c(c1)OCO2`, the cell number change is 4.4%.

In the case of `O=C(N/N=C\c1ccc(OC(=O)c2cccs2)cc1)c1ccc(Cl)cc1`, the cell number change is -3.17%. Under setting [2], the AC50 was 0.00517 µM [falling, full curve, poor fit].
